The assay deals with T1, LCMV zinc finger matrix protein Z, C-terminal strep tag (pCAGGs-LCMV-Z-strep) (lymphocytic choriomeningitis virus (LCMV)) (UniProt P18541).
T1 sequence: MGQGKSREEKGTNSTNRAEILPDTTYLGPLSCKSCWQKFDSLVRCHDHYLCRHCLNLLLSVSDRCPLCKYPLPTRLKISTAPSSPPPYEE
The assay can be described thus: co-IP.

Protein sequences, listed by entry. Tags and fused reporters are not part of them.
UniProt P40763: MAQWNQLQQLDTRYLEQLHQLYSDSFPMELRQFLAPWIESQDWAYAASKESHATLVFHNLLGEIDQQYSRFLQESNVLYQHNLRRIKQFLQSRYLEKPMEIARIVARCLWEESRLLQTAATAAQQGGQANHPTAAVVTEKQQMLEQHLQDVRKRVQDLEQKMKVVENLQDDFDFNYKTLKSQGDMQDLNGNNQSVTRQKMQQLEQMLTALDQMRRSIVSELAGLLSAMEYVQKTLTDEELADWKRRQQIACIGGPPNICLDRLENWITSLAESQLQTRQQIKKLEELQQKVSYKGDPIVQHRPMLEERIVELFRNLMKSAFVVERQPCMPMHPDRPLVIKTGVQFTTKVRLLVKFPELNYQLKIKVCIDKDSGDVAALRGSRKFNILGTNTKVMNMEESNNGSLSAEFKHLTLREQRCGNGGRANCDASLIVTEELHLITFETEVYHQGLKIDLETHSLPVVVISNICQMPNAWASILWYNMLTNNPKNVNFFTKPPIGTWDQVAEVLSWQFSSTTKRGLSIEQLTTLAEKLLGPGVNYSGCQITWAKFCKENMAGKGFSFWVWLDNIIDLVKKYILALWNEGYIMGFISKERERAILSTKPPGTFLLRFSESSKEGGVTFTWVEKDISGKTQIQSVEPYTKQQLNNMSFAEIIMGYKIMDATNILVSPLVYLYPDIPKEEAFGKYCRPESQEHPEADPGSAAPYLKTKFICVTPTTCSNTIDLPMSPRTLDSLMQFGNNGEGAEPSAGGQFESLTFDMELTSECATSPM

These are yes or no findings as the source states them, for the method shown. In cells and extracts the contact can be indirect. Some results given as binding are weak or reduced against the parent protein; the word gives no strength. Sequences can lack the tags named with a protein.

As for “signal transducer and activator of transcription 3 (STAT3) (from UniProt P40763 1-770)”, the binding entry is “binds”.

Values taken from paper PMC8225222.
